Data as given in the supplement of paper PMC6411743.
± gives the standard deviation of the averaged measurements. Only a part is listed here, and it is no random draw.

Protein sequences, listed by entry. Tags and fused reporters are not part of them. Lines headed by an entry give the natural chain unless they say otherwise; changes in a name come on top.
UniProt Q9Y221: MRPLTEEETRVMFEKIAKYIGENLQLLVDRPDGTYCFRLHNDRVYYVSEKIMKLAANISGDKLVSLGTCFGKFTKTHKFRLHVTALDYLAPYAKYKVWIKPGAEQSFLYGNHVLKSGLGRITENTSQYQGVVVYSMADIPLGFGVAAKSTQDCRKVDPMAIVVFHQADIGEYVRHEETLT
UniProt Q9UHQ9: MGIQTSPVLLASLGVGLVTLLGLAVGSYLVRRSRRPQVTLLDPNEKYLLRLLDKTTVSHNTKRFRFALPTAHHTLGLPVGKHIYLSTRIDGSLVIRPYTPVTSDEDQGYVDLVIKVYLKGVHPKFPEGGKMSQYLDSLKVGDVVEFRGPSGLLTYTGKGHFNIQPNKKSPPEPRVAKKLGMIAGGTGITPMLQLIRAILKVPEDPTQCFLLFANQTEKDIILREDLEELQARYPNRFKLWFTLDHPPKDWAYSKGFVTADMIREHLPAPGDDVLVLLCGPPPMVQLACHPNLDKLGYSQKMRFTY
UniProt Q9UBG0: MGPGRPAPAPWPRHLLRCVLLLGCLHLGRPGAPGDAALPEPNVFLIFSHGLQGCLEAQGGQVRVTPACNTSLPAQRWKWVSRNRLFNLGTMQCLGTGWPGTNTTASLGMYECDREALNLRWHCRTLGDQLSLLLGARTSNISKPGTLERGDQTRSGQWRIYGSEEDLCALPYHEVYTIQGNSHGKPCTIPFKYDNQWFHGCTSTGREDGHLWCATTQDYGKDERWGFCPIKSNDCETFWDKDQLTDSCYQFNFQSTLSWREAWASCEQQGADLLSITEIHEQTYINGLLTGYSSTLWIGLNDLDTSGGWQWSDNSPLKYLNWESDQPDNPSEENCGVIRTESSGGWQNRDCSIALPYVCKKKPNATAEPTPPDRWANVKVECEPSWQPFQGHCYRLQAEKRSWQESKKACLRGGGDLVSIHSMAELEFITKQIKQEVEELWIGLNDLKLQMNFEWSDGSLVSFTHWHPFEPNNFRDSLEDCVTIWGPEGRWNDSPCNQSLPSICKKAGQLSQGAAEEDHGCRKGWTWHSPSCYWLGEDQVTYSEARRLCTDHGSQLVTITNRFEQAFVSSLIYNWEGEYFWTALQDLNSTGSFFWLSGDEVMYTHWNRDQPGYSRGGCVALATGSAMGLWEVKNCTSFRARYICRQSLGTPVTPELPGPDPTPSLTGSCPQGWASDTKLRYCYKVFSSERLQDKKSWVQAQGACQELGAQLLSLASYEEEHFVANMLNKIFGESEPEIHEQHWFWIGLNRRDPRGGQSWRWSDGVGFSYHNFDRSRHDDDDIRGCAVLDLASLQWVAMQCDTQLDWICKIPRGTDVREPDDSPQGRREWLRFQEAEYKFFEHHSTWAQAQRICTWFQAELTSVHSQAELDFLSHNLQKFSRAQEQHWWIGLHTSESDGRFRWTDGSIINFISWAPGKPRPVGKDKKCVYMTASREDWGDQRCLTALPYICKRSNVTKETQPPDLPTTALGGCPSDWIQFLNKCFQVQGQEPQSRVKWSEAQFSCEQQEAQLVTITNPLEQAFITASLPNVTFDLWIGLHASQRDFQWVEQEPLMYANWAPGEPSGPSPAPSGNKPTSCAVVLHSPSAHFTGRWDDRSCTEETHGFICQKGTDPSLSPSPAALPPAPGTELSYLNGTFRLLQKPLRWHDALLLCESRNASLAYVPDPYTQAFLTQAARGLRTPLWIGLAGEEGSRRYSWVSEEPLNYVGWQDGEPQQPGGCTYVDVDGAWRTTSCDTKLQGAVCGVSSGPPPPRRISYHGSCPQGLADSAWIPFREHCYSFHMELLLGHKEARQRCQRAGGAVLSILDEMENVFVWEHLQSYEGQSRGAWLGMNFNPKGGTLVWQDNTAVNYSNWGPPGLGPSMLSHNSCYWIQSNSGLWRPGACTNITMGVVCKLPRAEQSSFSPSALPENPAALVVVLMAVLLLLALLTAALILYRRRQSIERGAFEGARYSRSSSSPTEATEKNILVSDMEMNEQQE
UniProt Q9UJT0: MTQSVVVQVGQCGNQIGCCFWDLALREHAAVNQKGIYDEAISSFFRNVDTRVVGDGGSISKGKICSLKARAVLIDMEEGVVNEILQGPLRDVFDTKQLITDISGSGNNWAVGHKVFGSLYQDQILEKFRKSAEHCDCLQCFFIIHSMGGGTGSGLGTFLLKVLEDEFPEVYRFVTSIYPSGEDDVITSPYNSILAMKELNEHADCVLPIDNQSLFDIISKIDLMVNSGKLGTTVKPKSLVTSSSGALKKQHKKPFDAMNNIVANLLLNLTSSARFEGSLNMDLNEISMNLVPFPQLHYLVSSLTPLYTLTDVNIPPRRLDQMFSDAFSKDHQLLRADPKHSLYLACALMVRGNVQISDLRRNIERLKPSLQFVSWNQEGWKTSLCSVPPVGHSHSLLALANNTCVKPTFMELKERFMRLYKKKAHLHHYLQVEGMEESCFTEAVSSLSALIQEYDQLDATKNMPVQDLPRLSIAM
UniProt Q9UL26: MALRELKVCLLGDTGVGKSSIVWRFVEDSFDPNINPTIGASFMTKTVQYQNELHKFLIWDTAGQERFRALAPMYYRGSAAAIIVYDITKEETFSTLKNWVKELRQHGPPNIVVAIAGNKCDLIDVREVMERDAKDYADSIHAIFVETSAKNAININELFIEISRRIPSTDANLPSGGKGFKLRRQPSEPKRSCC
UniProt Q9UJ70, whole entry: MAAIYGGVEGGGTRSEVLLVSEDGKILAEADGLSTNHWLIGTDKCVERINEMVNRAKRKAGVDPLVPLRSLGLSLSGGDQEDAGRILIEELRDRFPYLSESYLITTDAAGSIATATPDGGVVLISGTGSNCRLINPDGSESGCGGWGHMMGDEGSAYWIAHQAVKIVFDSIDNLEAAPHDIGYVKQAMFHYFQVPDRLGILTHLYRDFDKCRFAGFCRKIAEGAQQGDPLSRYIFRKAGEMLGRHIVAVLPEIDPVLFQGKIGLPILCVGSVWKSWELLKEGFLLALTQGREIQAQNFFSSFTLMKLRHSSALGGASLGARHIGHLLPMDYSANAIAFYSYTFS
UniProt Q9UJU2, whole entry: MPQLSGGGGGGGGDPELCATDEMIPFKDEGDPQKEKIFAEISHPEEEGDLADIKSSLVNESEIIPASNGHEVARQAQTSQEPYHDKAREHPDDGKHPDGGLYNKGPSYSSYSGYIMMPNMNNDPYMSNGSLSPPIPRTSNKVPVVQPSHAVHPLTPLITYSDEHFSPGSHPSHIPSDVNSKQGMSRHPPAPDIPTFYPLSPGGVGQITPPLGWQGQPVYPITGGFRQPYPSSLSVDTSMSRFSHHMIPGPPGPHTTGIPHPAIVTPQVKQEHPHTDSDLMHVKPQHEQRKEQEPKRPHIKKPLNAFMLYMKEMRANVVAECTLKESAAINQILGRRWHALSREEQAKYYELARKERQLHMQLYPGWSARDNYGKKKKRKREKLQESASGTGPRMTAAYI
UniProt Q9Y244: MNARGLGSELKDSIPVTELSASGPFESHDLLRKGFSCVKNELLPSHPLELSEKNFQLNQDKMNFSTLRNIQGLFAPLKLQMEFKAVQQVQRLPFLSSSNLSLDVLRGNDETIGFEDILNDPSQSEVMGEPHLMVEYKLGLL
UniProt Q9UGU5: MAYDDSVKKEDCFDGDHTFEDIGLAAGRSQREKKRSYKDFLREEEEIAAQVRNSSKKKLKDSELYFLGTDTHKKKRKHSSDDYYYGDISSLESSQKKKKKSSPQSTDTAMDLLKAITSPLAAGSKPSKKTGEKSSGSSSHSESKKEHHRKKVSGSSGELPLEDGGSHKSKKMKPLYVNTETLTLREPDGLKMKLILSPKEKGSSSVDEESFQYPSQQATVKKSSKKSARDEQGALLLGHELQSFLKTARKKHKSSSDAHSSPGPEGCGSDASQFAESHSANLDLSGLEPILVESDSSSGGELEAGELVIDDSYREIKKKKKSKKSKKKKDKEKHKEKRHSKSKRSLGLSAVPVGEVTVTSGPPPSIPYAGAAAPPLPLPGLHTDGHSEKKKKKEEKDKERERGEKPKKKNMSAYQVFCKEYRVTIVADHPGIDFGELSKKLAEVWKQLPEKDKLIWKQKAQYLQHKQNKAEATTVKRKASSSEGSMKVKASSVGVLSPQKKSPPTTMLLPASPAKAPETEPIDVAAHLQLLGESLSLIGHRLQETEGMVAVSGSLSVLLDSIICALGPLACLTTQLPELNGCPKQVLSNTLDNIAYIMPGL
UniProt Q9UQE7: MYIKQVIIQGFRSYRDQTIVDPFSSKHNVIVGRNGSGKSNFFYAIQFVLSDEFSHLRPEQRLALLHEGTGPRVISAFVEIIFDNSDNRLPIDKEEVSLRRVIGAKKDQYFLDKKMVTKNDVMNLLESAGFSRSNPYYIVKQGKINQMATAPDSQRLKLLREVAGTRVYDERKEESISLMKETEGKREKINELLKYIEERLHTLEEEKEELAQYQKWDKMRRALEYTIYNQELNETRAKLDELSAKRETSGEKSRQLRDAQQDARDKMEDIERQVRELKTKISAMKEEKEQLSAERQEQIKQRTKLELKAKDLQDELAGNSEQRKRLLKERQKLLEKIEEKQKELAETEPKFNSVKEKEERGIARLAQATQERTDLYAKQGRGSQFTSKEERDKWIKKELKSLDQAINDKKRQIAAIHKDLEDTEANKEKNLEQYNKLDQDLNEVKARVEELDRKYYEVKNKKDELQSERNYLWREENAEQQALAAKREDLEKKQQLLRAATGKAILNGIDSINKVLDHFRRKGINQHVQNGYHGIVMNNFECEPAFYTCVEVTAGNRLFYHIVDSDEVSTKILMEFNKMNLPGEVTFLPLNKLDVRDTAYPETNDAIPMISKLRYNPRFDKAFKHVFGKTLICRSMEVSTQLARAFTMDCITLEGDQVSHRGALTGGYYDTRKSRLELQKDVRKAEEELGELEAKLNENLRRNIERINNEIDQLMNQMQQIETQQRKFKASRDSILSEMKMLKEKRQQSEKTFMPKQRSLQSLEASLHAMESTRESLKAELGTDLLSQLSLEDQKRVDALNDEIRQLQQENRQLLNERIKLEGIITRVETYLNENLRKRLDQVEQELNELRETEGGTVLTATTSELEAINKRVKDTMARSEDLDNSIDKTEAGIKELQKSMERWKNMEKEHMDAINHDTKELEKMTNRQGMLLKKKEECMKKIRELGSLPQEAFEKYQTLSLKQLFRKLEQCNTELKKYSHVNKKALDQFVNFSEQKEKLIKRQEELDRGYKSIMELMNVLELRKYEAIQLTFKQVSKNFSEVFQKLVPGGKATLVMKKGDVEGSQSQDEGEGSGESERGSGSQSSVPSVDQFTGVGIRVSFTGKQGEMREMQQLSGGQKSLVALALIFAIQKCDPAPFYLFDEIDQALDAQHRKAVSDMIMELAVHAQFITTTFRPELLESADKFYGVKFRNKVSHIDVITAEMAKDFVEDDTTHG
UniProt Q9UBM7: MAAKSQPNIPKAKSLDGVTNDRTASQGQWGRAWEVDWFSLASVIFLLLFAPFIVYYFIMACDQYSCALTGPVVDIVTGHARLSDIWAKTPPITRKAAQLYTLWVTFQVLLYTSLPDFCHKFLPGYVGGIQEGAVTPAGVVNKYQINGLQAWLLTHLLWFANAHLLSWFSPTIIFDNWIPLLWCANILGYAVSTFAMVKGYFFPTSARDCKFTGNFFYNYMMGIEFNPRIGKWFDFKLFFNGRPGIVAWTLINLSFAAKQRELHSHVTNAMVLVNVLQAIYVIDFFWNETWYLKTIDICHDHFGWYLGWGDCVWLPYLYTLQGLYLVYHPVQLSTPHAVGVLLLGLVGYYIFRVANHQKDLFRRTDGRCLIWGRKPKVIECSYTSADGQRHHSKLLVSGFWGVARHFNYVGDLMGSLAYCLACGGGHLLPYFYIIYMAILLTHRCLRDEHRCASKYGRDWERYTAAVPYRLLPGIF
UniProt Q9ULR3: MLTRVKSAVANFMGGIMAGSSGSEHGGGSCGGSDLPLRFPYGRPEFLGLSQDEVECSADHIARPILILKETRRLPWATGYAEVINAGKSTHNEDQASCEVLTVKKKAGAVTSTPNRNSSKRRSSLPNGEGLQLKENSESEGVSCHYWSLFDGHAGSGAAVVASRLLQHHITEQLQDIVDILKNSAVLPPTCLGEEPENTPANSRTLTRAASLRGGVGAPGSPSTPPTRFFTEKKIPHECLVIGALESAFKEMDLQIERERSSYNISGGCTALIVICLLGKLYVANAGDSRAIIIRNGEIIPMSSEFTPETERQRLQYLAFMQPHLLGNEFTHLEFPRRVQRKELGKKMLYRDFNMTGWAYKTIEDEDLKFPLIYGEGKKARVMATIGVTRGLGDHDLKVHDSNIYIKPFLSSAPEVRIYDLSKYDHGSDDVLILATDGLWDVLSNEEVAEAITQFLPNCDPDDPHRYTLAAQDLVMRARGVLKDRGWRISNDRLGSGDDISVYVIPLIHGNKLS
UniProt Q9UNL4, whole entry: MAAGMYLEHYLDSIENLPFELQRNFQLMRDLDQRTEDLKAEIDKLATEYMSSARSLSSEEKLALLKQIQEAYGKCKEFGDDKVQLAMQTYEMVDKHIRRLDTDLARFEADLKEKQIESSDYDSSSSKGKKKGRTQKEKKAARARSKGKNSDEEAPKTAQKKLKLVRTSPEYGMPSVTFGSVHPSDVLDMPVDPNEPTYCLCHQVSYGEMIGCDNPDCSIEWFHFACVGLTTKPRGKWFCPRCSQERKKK

Compound: Nc1ncnc2c1ncn2[C@@H]1O[C@H](COP(=O)(O)OP(=O)(O)OP(=O)(O)O)[C@@H](O)[C@H]1O [adenosine triphosphate]
Assay: NP40-soluble protein abundance relative to vehicle (solubility fold change) (ratio); higher = more soluble protein in presence of ATP
Procedure, shortened: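 Jurkat crude lysate prepared with a Dounce homogeniser was treated at eight concentrations spanning 0.1 to 10 mM, 10 min at room temperature then 3 min at 37 °C. Solubilisation with 0.8% NP40 and benzonase and ultracentrifugation preceded TMT labelling of the supernatant for LC-MS/MS. Fold change against the detergent-processed vehicle was determined per replicate from vsn-normalised intensities, across three independent experiments.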

Target	NP40-soluble protein abundance (concentration: 1mM)	NP40-soluble protein abundance (concentration: 2mM)	NP40-soluble protein abundance (concentration: 4mM)	NP40-soluble protein abundance (concentration: 6mM)	NP40-soluble protein abundance (concentration: 8mM)	NP40-soluble protein abundance (concentration: 10mM)
ZNF219 (UniProt Q9P2Y4)	1.03 ± 0.22	1.04 ± 0.16	1.07 ± 0.092	1.14 ± 0.18	1.04 ± 0.063	1.12 ± 0.078
UniProt Q9Y221 and related entries	1.14 ± 0.061	1.15 ± 0.025	1.38 ± 0.048	1.29 ± 0.079	1.44 ± 0.14	1.55 ± 0.12
SARDH (UniProt Q9UL12)	1.01 ± 0.071	1.03 ± 0.073	1.04 ± 0.067	1.01 ± 0.12	1.06 ± 0.071	1.07 ± 0.1
CYB5R1 (UniProt Q9UHQ9)	1 ± 0.11	0.996 ± 0.09	0.977 ± 0.089	0.942 ± 0.16	0.996 ± 0.065	0.992 ± 0.072
UniProt Q9UNS1 and related entries	0.979 ± 0.041	0.982 ± 0.02	0.968 ± 0.019	0.964 ± 0.028	0.951 ± 0.01	0.975 ± 0.025
MRC2 (UniProt Q9UBG0)	0.96 ± 0.047	0.954 ± 0.04	0.982 ± 0.046	0.988 ± 0.051	0.972 ± 0.031	0.936 ± 0.048
CHMP2B (UniProt Q9UQN3)	1.12 ± 0.1	1.13 ± 0.05	1.09 ± 0.12	1.15 ± 0.05	1.05 ± 0.08	1.08 ± 0.041
TUBE1 (UniProt Q9UJT0)	1.01 ± 0.077	1 ± 0.07	1.01 ± 0.062	1.02 ± 0.057	1.07 ± 0.063	1.03 ± 0.06
NIPSNAP3A (UniProt Q9UFN0)	1.05 ± 0.17	1.03 ± 0.13	1.04 ± 0.13	0.938 ± 0.17	1.06 ± 0.099	1.02 ± 0.1
RAB22A (UniProt Q9UL26)	0.971 ± 0.16	0.955 ± 0.056	1.02 ± 0.09	0.896 ± 0.14	0.925 ± 0.048	0.908 ± 0.039
ZC3H4 (UniProt Q9UPT8)	0.998 ± 0.065	1.02 ± 0.026	1.03 ± 0.03	1.07 ± 0.032	1.017 ± 0.0029	1.029 ± 0.0049
NAGK (UniProt Q9UJ70)	0.991 ± 0.04	1 ± 0.03	1.01 ± 0.019	0.936 ± 0.067	0.9375 ± 0.0028	0.983 ± 0.044
UniProt Q9UJU2 and related entries	0.899 ± 0.052	0.878 ± 0.047	0.843 ± 0.043	0.881 ± 0.055	0.86 ± 0.02	0.86 ± 0.071
STOML2 (UniProt Q9UJZ1)	0.984 ± 0.075	0.946 ± 0.046	0.934 ± 0.062	0.981 ± 0.14	0.949 ± 0.076	0.921 ± 0.055
DDX20 (UniProt Q9UHI6)	0.969 ± 0.046	0.899 ± 0.058	0.915 ± 0.085	0.942 ± 0.21	0.956 ± 0.14	0.979 ± 0.12
NOTCH3 (UniProt Q9UM47)	0.974 ± 0.061	1 ± 0.078	0.869 ± 0.086	0.955 ± 0.024	0.864 ± 0.045	1 ± 0.21
POMP (UniProt Q9Y244)	0.901 ± 0.079	0.9 ± 0.084	0.865 ± 0.076	0.906 ± 0.13	0.878 ± 0.049	0.814 ± 0.093

A different layout for some results above:
Target,NP40-soluble protein abundance (concentration: 1mM),NP40-soluble protein abundance (concentration: 2mM),NP40-soluble protein abundance (concentration: 4mM),NP40-soluble protein abundance (concentration: 6mM),NP40-soluble protein abundance (concentration: 8mM),NP40-soluble protein abundance (concentration: 10mM)
SARDH (UniProt Q9UL12),1.01 ± 0.071,1.03 ± 0.073,1.04 ± 0.067,1.01 ± 0.12,1.06 ± 0.071,1.07 ± 0.1
TUBE1 (UniProt Q9UJT0),1.01 ± 0.077,1 ± 0.07,1.01 ± 0.062,1.02 ± 0.057,1.07 ± 0.063,1.03 ± 0.06
POMP (UniProt Q9Y244),0.901 ± 0.079,0.9 ± 0.084,0.865 ± 0.076,0.906 ± 0.13,0.878 ± 0.049,0.814 ± 0.093

Following part

Target	NP40-soluble protein abundance (concentration: 1mM)	NP40-soluble protein abundance (concentration: 2mM)	NP40-soluble protein abundance (concentration: 4mM)	NP40-soluble protein abundance (concentration: 6mM)	NP40-soluble protein abundance (concentration: 8mM)	NP40-soluble protein abundance (concentration: 10mM)
UniProt Q9Y232-2|Q9Y232	0.929 ± 0.059	0.999 ± 0.12	0.974 ± 0.042	0.945 ± 0.12	0.965 ± 0.039	0.967 ± 0.092
HMGXB4 (UniProt Q9UGU5)	1.08 ± 0.05	1.07 ± 0.016	1.14 ± 0.032	1.09 ± 0.031	1.08 ± 0.08	1.163 ± 0.0075
SRP68 (UniProt Q9UHB9)	0.991 ± 0.025	1.009 ± 0.0096	1.03 ± 0.022	1.07 ± 0.018	1.08 ± 0.02	1.08 ± 0.023
C19orf53 (UniProt Q9UNZ5)	0.931 ± 0.3	0.931 ± 0.15	0.961 ± 0.25	1.16 ± 0.28	1.03 ± 0.23	1.16 ± 0.32
SMC3 (UniProt Q9UQE7)	0.9943 ± 0.0032	0.9787 ± 0.0065	0.968 ± 0.013	1.01 ± 0.036	0.987 ± 0.032	0.97 ± 0.024
UniProt Q9UGN5-2	1.11 ± 0.054	1.17 ± 0.053	1.24 ± 0.023	1.31 ± 0.038	1.34 ± 0.027	1.39 ± 0.074
PPIE (UniProt Q9UNP9)	0.995 ± 0.035	1.005 ± 0.0045	0.968 ± 0.015	1.016 ± 0.01	0.9771 ± 0.0044	0.986 ± 0.015
DIP2B (UniProt Q9P265)	0.995 ± 0.073	0.995 ± 0.055	1 ± 0.045	0.943 ± 0.052	1.01 ± 0.019	0.997 ± 0.039
DHCR7 (UniProt Q9UBM7)	0.967 ± 0.078	0.957 ± 0.061	0.932 ± 0.085	0.855 ± 0.11	0.961 ± 0.031	0.978 ± 0.025
UniProt Q9UI26 and related entries	1.02 ± 0.13	1.04 ± 0.078	1.04 ± 0.049	0.993 ± 0.1	1.03 ± 0.011	1.06 ± 0.055
PPM1H (UniProt Q9ULR3)	1.02 ± 0.036	0.986 ± 0.023	0.971 ± 0.038	0.943 ± 0.037	0.945 ± 0.024	0.94 ± 0.021
UniProt Q9P2R3 and related entries	1.01 ± 0.082	0.99 ± 0.062	0.992 ± 0.051	0.922 ± 0.088	0.987 ± 0.035	0.992 ± 0.046
UniProt Q9ULK4 and related entries	1.1 ± 0.076	1.05 ± 0.038	1.03 ± 0.053	0.995 ± 0.035	1.1 ± 0.041	1.04 ± 0.049
UniProt Q9UPQ9-1|Q9UPQ9 and related entries	0.979 ± 0.078	1.05 ± 0.055	1.02 ± 0.039	1.09 ± 0.064	1.02 ± 0.046	1.06 ± 0.051
VDAC3 (UniProt Q9Y277)	0.972 ± 0.064	0.953 ± 0.038	0.92 ± 0.049	0.908 ± 0.066	0.906 ± 0.038	0.929 ± 0.017
FARSA (UniProt Q9Y285)	0.985 ± 0.07	0.966 ± 0.042	0.947 ± 0.027	0.899 ± 0.096	0.94 ± 0.012	0.968 ± 0.038
UniProt Q9UNL4 and related entries	1.1 ± 0.066	1.18 ± 0.091	1.28 ± 0.043	1.26 ± 0.12	1.23 ± 0.04	1.37 ± 0.2
